# Measurements reported in PubChem BioAssay AID1259405 (NCATS, 2018)
# Assay: 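Silenced genes that increase secreted GFP made by CHO cells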 (primary screen)
# Cells: Chinese hamster CHO-K1 ovary cells with stable secreted eGFP expression
# Knock-down reagent: single siRNA against mouse genes, 0.8 pmol siRNA per well (2 µl of 400 nM stock)
# Duration: 3 days
# Read-out: 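Per-well intracellular GFP measured by laser scanning cytometry, plus viability from ATP luminescence, each relative to plate median of non-targeting control wells, in %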
# Scale: GFP, % of control: higher = more GFP per well, higher productivity; viability (ATP), % of control: higher = more viable cells (more ATP)
# Hit rule: 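Called active when intracellular GFP, relative to negative control, is at or above 120%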
# This is a random part of about 50,000 reagents. Over the whole deposit, about 4,000 (8%) are marked active. 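Mouse siRNA library applied to hamster cells; one well for each siRNA.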 Reagent sequences are not shown.
Gene,PubChem SID,"GFP, % of control","viability (ATP), % of control",Call
Zfp69 (GeneID 381549),SID363541068,63.9,73.6,inactive
Zfp69 (GeneID 381549),SID363555695,67.7,85.8,inactive
Zfp69 (GeneID 381549),SID363565984,101,84.4,inactive
St8sia1 (GeneID 20449),SID363570460,58.4,73.3,inactive
St8sia1 (GeneID 20449),SID363579260,92.2,71,inactive
St8sia1 (GeneID 20449),SID363583132,81.7,79.9,inactive
Paf1 (GeneID 54624),SID363552221,46.3,71.8,inactive
Paf1 (GeneID 54624),SID363585357,116,77.9,inactive
Paf1 (GeneID 54624),SID363585708,131,120,active
Uaca (GeneID 72565),SID363556776,86.6,56,inactive
Uaca (GeneID 72565),SID363563680,96.8,50.7,inactive
Uaca (GeneID 72565),SID363587226,108,112,inactive
Isg20 (GeneID 57444),SID363569879,58.3,77.1,inactive
Isg20 (GeneID 57444),SID363576919,44.9,54.3,inactive
Isg20 (GeneID 57444),SID363578327,108,65.4,inactive
Igsf6 (GeneID 80719),SID363540334,89.1,94.1,inactive
Igsf6 (GeneID 80719),SID363542086,135,63.7,active
Igsf6 (GeneID 80719),SID363567002,91.6,92.5,inactive
Akt3 (GeneID 23797),SID363570958,61.9,85.1,inactive
Abhd17a (GeneID 216169),SID363550347,66.6,77.4,inactive
Abhd17a (GeneID 216169),SID363564856,58.5,59.5,inactive
Abhd17a (GeneID 216169),SID363588401,107,120,inactive
Daam2 (GeneID 76441),SID363541137,132,60.8,active
Daam2 (GeneID 76441),SID363555764,92.5,82.9,inactive
Daam2 (GeneID 76441),SID363566053,78.5,72.6,inactive
Pa2g4 (GeneID 18813),SID363569209,120,122,inactive
Pa2g4 (GeneID 18813),SID363583641,76.3,80.9,inactive
Sdsl (GeneID 257635),SID363569050,92,92.6,inactive
Sdsl (GeneID 257635),SID363583482,98.2,87.3,inactive
Ormdl1 (GeneID 227102),SID363550042,74.7,85.2,inactive
Ormdl1 (GeneID 227102),SID363564551,80.9,64.6,inactive
Ormdl1 (GeneID 227102),SID363588096,91.2,106,inactive
Or52l1 (GeneID 258160),SID363554231,85.1,83.6,inactive
Or52l1 (GeneID 258160),SID363567678,123,58,active
Or52l1 (GeneID 258160),SID363585035,81.2,84.7,inactive
Mterf4 (GeneID 69821),SID363552390,98.8,80.8,inactive
Mterf4 (GeneID 69821),SID363585526,50,73.4,inactive
Mterf4 (GeneID 69821),SID363585877,135,112,active
Bccip (GeneID 66165),SID363546884,43,61.6,inactive
Bccip (GeneID 66165),SID363549696,58.6,77.2,inactive
Bccip (GeneID 66165),SID363587750,139,139,active
H2-Q7 (GeneID 15018),SID363553807,109,89,inactive
H2-Q7 (GeneID 15018),SID363561764,109,89.3,inactive
H2-Q7 (GeneID 15018),SID363565502,92.7,74.6,inactive
Prl5a1 (GeneID 28078),SID363541411,45.3,37.6,inactive
Prl5a1 (GeneID 28078),SID363556038,93.8,80.8,inactive
Prl5a1 (GeneID 28078),SID363566327,84.1,76.2,inactive
Mbl2 (GeneID 17195),SID363553836,61.4,83.5,inactive
Mbl2 (GeneID 17195),SID363561793,83.7,91.7,inactive
Mbl2 (GeneID 17195),SID363565531,55.8,60.8,inactive
Ufsp2 (GeneID 192169),SID363543385,79.2,63.6,inactive
Ufsp2 (GeneID 192169),SID363552878,95.1,67.5,inactive
Ufsp2 (GeneID 192169),SID363558726,103,73.9,inactive
Galnt12 (GeneID 230145),SID363570683,101,80.1,inactive
Galnt12 (GeneID 230145),SID363579483,68,127,inactive
Galnt12 (GeneID 230145),SID363583355,79.7,129,inactive
Tada3 (GeneID 101206),SID363584513,75.9,91.1,inactive
Tada3 (GeneID 101206),SID363589543,57.7,56.7,inactive

9 neighbouring reagents already listed, quoted:
Gene,PubChem SID,"GFP, % of control","viability (ATP), % of control",Call
H2-Q7 (GeneID 15018),SID363553807,109,89,inactive
H2-Q7 (GeneID 15018),SID363561764,109,89.3,inactive
H2-Q7 (GeneID 15018),SID363565502,92.7,74.6,inactive
Prl5a1 (GeneID 28078),SID363541411,45.3,37.6,inactive
Prl5a1 (GeneID 28078),SID363556038,93.8,80.8,inactive
Prl5a1 (GeneID 28078),SID363566327,84.1,76.2,inactive
Mbl2 (GeneID 17195),SID363553836,61.4,83.5,inactive
Mbl2 (GeneID 17195),SID363561793,83.7,91.7,inactive
Mbl2 (GeneID 17195),SID363565531,55.8,60.8,inactive
